# Laboratory results as given in the supplement of paper PMC10398353.
# Where “and” joins values, the source holds several entries; their conditions need not be identical. Equal values may be shown once. Where a name gives a salt, the structure may show the parent alone. ± gives the standard deviation of the averaged measurements. The list shows a part of the results. This is a noisy data set.
# System: Salmonella enterica serovar Typhimurium ST313 D23580
# Assay: normalized bacterial growth (OD600 20 h minus 0 h, interquartile-mean normalized) (fraction of plate interquartile mean); higher = more bacterial growth (less inhibition)
# Settings: LPM (pH 5.8, low phosphate, low Mg2+), concentration: 10 µM, temperature: 37 °C
row,Compound,normalized bacterial growth
1,C=CC1=C(C)/C(=C/c2[nH]c(Cc3[nH]c(/C=C4\NC(=O)C(C)=C4C=C)c(C)c3CCC(=O)O)c(CCC(=O)O)c2C)NC1=O,0.571
2,Nc1nc(N)c2nc(-c3ccccc3)c(N)nc2n1 [Triamterene],1.21
3,C=C1CC[C@H](O)C/C1=C/C=C1\CCC[C@]2(C)[C@@H]([C@H](C)/C=C/[C@H](C)C(C)C)CC[C@@H]12 [Calciferol],1.18
4,C=C1CC[C@H](O)C/C1=C/C=C1\CCC[C@]2(C)[C@@H]([C@H](C)/C=C/[C@H](C)C(C)C)CC[C@@H]12,1.39
5,CC(C)=CCCC1(C)C=Cc2c(O)c3c(c(CC=C(C)C)c2O1)OC12C(=CCCC1C(C)(C)O[C@@]2(C/C=C(\C)C(=O)O)C(=O)O)C3=O (some centres not stated),1.38
6,COc1cc(N)c(Cl)cc1C(=O)OCCN1CCCCC1,0.971
7,CC[C@H](c1ccc(O)cc1)[C@@H](CC)c1ccc(O)cc1 [Hexestrol],1
8,Cc1c(Nc2ncccc2C(=O)O)cccc1C(F)(F)F,1.02
9,Cc1c(Nc2ncccc2C(=O)O)cccc1C(F)(F)F [Flunixin meglumine],1.21
10,CCCCCC(O)CCCC(=O)O (configuration not stated) [5-hydroxydecanoic acid sodium],1.14
11,C/C=C(\C)C(=O)O[C@@H]1c2c(ccc3ccc(=O)oc23)OC(C)(C)[C@@H]1OC(C)=O,1.09
12,"CC(C)CCC[C@@H](C)[C@H]1CC[C@H]2[C@@H]3C[C@@H](O)[C@@]4(O)C[C@@H](O)CC[C@]4(C)[C@H]3CC[C@]12C [""CHOLESTAN-3beta,5alpha,6beta-TRIOL""]",1.14
13,CCCN(CC1CC1)c1nc(C)nc(Nc2c(Cl)cc(Cl)cc2Cl)c1Cl,0.98
14,CC1O[C@H](O[C@]2(O[C@H]3CC[C@@]4(C)C(=CC[C@H]5[C@@H]6C[C@H]7[C@H]([C@H](C)[C@H]8CC[C@H](C)CN87)[C@@]6(C)CC[C@@H]54)C3)C[C@@H](O[C@@H]3OC(CO)[C@@H](O)[C@@H](O)C3O)[C@@H](O)C(CO)O2)C(O)[C@@H](O)[C@H]1O (stereo partly drawn) [Solanine alpha],0.942
15,CC1O[C@H](O[C@]2(O[C@H]3CC[C@@]4(C)C(=CC[C@H]5[C@@H]6C[C@H]7[C@H]([C@H](C)[C@H]8CC[C@H](C)CN87)[C@@]6(C)CC[C@@H]54)C3)C[C@@H](O[C@@H]3OC(CO)[C@@H](O)[C@@H](O)C3O)[C@@H](O)C(CO)O2)C(O)[C@@H](O)[C@H]1O (some centres not stated),1.07
16,CS[C@H]1SC[C@H]2C(=O)N(C)[C@@H](C(C)C)C(=O)OC[C@@H](NC(=O)c3cnc4ccccc4n3)C(=O)N[C@@H](C)C(=O)N(C)[C@@H]1C(=O)N(C)[C@@H](C(C)C)C(=O)OC[C@@H](NC(=O)c1cnc3ccccc3n1)C(=O)N[C@@H](C)C(=O)N2C,0.424
17,Nc1ncnc2c1ncn2C1CCCC1 [9-cyclopentyladenine],0.965
18,C[C@]12CCC(=O)C=C1CC[C@@H]1[C@@H]2[C@@H](O)C[C@@]2(C)[C@H]1CC[C@]2(O)C(=O)COP(=O)(O)O,0.948
19,CC(=O)OCC(=O)[C@@]1(O)CC[C@H]2[C@@H]3CCC4=CC(=O)C=C[C@]4(C)[C@H]3[C@@H](O)C[C@@]21C,1.01
20,O=C1NC(c2cccc([N+](=O)[O-])c2)=CCN1c1ccccc1O [Icilin],1.35
21,COC(=O)[C@@]1(C)CCC[C@]2(C)c3ccc(O)c(C(C)C)c3CCC12 (some centres not stated),0.874
22,O=C(O)CCCCCCCC(O)C(O)CCCCCCO (configuration not stated),1.04
23,NC(=O)c1ccccc1 [Benzamide],0.906
24,CN(Cc1cc(Br)cc(Br)c1N)C1CCCCC1,0.76
25,C[C@H](CS)C(=O)N1CCC[C@H]1C(=O)O [Captopril],1.03
26,CC1(C)O[C@@H]2C[C@H]3[C@@H]4C[C@H](F)C5=CC(=O)C=C[C@]5(C)[C@H]4[C@@H](O)C[C@]3(C)[C@]2(C(=O)CO)O1,0.92

row,Compound,normalized bacterial growth
1,CC1(C)O[C@@H]2C[C@H]3[C@@H]4C[C@H](F)C5=CC(=O)C=C[C@]5(C)[C@H]4[C@@H](O)C[C@]3(C)[C@]2(C(=O)CO)O1 [Flunisolide],1.15
2,NCCc1ccc(O)c(O)c1 [Dopamine hydrochloride],0.881
3,NCCc1ccc(O)c(O)c1,0.939
4,C[C@H](Cc1ccc(O)c(O)c1)[C@@H](C)Cc1ccc(O)c(O)c1,0.976
5,NC(N)=NC(N)=Nc1ccccc1 [1-Phenylbiguanide],1.01
6,CC(C)c1c(O)ccc2c1CCC1[C@@](C)(C=O)CCC[C@]21C (some centres not stated),1.11
7,CCN1CCCC1CNC(=O)c1cc(S(N)(=O)=O)ccc1OC (configuration not stated),1.13
8,CCN1CCCC1CNC(=O)c1cc(S(N)(=O)=O)ccc1OC (configuration not stated) [()-Sulpiride],1.24
9,O=C(O)c1cc2cc(F)ccc2[nH]1 [5-Fluoroindole-2-carboxylic acid],1.38
10,CCCCc1oc2ccccc2c1C(=O)c1cc(I)c(OCCN(CC)CC)c(I)c1 [Amiodarone hydrochloride],1.7
11,O=c1[nH]c(=O)n([C@H]2C[C@H](O)[C@@H](CO)O2)cc1I [Idoxuridine],1.15
12,Cc1cccc(N(C)C(=S)Oc2ccc3ccccc3c2)c1,0.77
13,N[C@@H](COP(=O)(O)O)C(=O)O [O-Phospho-L-serine],1.05
14,CC1(C)O[C@@H]2C[C@H]3[C@@H]4C[C@H](F)C5=CC(=O)CC[C@]5(C)[C@H]4[C@@H](O)C[C@]3(C)[C@]2(C(=O)CO)O1 [Flurandrenolide],1.12
15,CC1(C)O[C@@H]2C[C@H]3[C@@H]4C[C@H](F)C5=CC(=O)CC[C@]5(C)[C@H]4[C@@H](O)C[C@]3(C)[C@]2(C(=O)CO)O1,0.941
16,CCC(=O)OCC(=O)[C@@]1(OC(=O)CC)[C@@H](C)C[C@H]2[C@@H]3CCC4=CC(=O)C=C[C@]4(C)[C@@]3(F)[C@@H](O)C[C@@]21C,0.865
17,CC1=CCc2c(cc3oc(C)cc(=O)c3c2O)OC1,0.988
18,CC1(C)CC2C1CCC1(C)OC1CCC2(C)O (configuration not stated),1.24
19,COc1ccc(/C=C/c2cc(O)cc(O[C@@H]3O[C@H](CO)[C@@H](O)[C@H](O)[C@H]3O)c2)cc1O,0.953
20,NNC(=O)c1ccncc1,1.25
21,CN(C(=O)CCCOc1ccc2[nH]c(=O)ccc2c1)C1CCCCC1 [Cilostamide],1.03
22,CSCCC(N)C(=O)NC(CC(C)C)C(=O)NC(Cc1ccccc1)C(=O)O (configuration not stated),1.04
23,CCC[C@@H]1C[C@@H](C(=O)N[C@@H]([C@H]2O[C@H](SC)[C@H](O)[C@@H](O)[C@H]2O)[C@@H](C)O)N(C)C1 [Lincomycin hydrochloride],1.05
24,CCC[C@@H]1C[C@@H](C(=O)N[C@@H]([C@H]2O[C@H](SC)[C@H](O)[C@@H](O)[C@H]2O)[C@@H](C)O)N(C)C1,1.25 and 1.16
25,C=C1C(N)CC2CC1C2(C)C (stereo not drawn) [3-AMINO-beta-PINENE],0.77
26,CN1CCCN=C1/C=C/c1cccs1,1.05

# Exported with tabs: entries from further up
row	Compound	normalized bacterial growth
12	Cc1cccc(N(C)C(=S)Oc2ccc3ccccc3c2)c1	0.77
13	N[C@@H](COP(=O)(O)O)C(=O)O [O-Phospho-L-serine]	1.05

# More results follow:

row,Compound,normalized bacterial growth
1,CN1CCCN=C1/C=C/c1cccs1 [Pyrantel tartrate],0.967
2,COc1ccc(-c2cc(=O)c3c(OC)c(OC)c(OC)c(OC)c3o2)cc1OC,0.962
3,Nc1ccc(S(=O)(=O)O)cc1.Nc1ccc(S(=O)(=O)O)cc1.[Zn],1.07
4,C#C[C@]1(O)CC[C@H]2[C@@H]3CCC4=Cc5oncc5C[C@]4(C)[C@H]3CC[C@@]21C,0.789
5,C#C[C@]1(O)CC[C@H]2[C@@H]3CCC4=Cc5oncc5C[C@]4(C)[C@H]3CC[C@@]21C [Danazol],0.963 ± 0.045
6,O=C(Nc1ccc([N+](=O)[O-])cc1Cl)c1cc(Cl)ccc1O [Niclosamide],1.23
7,CCOc1ccc(Cc2nccc3cc(OCC)c(OCC)cc23)cc1OCC,0.773
8,CC12CC3CC(C)(C1)CC(N)(C3)C2 [Memantine hydrochloride],1.06
9,CC(C)=CCc1c(O)cc2oc(C)cc(=O)c2c1O,1.18
10,COc1ccc(-c2cc(=O)c3c(OC)c(OC)c(OC)c(OC)c3o2)cc1,1.02
11,CN1c2ccccc2C(=O)N2CCc3c([nH]c4ccccc34)C21 (stereo in doubt),1.03
12,O=C1C[C@@H](c2ccc(O)c(O)c2)Oc2c1ccc(O[C@@H]1O[C@H](CO)[C@@H](O)[C@H](O)[C@H]1O)c2O,1.21
13,O=C1c2cccc(O)c2C(=O)c2c(O)cccc21,0.579
14,"O=c1cc(N2CCOCC2)oc2c(-c3ccccc3)cccc12 [""LY-294,002 hydrochloride""]",0.823
15,CCOC(N)=O,1.67
16,CCCCCCCCCCCC[C@@H](C(=O)O)[C@H](C)C(=O)O,1.14
17,CC(C)NNC(=O)c1ccncc1 [Iproniazid phosphate],1.11
18,CCN(CC)CCNC(=O)c1cc(Br)c(N)cc1OC,1.04
19,CCCCC(=O)N(Cc1ccc(-c2ccccc2-c2nnn[nH]2)cc1)[C@H](C(=O)O)C(C)C,1.31
20,C[C@H]1C(=O)CC[C@@H]2[C@]1(C)CC[C@H]1[C@@]2(C)CC[C@@]2(C)[C@@H]3CC(C)(C)CC[C@]3(C)CC[C@]12C,1.1 ± 0.057
21,OC(CCN1CCCCC1)(c1ccccc1)c1ccccc1,0.94
22,CCOC(=O)C1=C(C)NC(C)=C(C(=O)OC)C1c1cccc(Cl)c1Cl (configuration not stated) [Felodipine],0.913
23,C[C@H](CCC(=O)O)[C@H]1CC[C@H]2[C@@H]3C(=O)C[C@@H]4CC(=O)CC[C@]4(C)[C@H]3CC(=O)[C@]12C,0.948 and 0.873
24,C[C@H](CCC(=O)O)[C@H]1CC[C@H]2[C@@H]3C(=O)C[C@@H]4CC(=O)CC[C@]4(C)[C@H]3CC(=O)[C@]12C [Dehydrocholic acid],1.21
25,CO[C@H]1C[C@H](O[C@@H]2/C(C)=C/C[C@@H]3C[C@@H](C[C@]4(CC[C@H](C)[C@@H](C5CCCCC5)O4)O3)OC(=O)[C@@H]3C=C(C)/C(=N/O)[C@H]4OC/C(=C\C=C\[C@@H]2C)[C@]43O)O[C@@H](C)[C@@H]1O,0.754

# Some of the entries above, set out differently:
row | Compound | normalized bacterial growth
5 | C#C[C@]1(O)CC[C@H]2[C@@H]3CCC4=Cc5oncc5C[C@]4(C)[C@H]3CC[C@@]21C [Danazol] | 0.963 ± 0.045
6 | O=C(Nc1ccc([N+](=O)[O-])cc1Cl)c1cc(Cl)ccc1O [Niclosamide] | 1.23
7 | CCOc1ccc(Cc2nccc3cc(OCC)c(OCC)cc23)cc1OCC | 0.773

# Copied from the list.
# normalized bacterial growth, CCOC(N)=O is entered as 1.67
# normalized bacterial growth, O=C1c2cccc(O)c2C(=O)c2c(O)cccc21 is entered as 0.579
